The values that follow come from PMC2775917.

The chains behind the UniProt entries cited, without tags or fusion partners. Where a name states a change or a piece, a line headed by the entry shows the natural chain unless it says otherwise. A line that says so, or that is headed by a name, gives the form on record, which may keep a tag or linker. Residues count along the entry.
UniProt Q8VI56: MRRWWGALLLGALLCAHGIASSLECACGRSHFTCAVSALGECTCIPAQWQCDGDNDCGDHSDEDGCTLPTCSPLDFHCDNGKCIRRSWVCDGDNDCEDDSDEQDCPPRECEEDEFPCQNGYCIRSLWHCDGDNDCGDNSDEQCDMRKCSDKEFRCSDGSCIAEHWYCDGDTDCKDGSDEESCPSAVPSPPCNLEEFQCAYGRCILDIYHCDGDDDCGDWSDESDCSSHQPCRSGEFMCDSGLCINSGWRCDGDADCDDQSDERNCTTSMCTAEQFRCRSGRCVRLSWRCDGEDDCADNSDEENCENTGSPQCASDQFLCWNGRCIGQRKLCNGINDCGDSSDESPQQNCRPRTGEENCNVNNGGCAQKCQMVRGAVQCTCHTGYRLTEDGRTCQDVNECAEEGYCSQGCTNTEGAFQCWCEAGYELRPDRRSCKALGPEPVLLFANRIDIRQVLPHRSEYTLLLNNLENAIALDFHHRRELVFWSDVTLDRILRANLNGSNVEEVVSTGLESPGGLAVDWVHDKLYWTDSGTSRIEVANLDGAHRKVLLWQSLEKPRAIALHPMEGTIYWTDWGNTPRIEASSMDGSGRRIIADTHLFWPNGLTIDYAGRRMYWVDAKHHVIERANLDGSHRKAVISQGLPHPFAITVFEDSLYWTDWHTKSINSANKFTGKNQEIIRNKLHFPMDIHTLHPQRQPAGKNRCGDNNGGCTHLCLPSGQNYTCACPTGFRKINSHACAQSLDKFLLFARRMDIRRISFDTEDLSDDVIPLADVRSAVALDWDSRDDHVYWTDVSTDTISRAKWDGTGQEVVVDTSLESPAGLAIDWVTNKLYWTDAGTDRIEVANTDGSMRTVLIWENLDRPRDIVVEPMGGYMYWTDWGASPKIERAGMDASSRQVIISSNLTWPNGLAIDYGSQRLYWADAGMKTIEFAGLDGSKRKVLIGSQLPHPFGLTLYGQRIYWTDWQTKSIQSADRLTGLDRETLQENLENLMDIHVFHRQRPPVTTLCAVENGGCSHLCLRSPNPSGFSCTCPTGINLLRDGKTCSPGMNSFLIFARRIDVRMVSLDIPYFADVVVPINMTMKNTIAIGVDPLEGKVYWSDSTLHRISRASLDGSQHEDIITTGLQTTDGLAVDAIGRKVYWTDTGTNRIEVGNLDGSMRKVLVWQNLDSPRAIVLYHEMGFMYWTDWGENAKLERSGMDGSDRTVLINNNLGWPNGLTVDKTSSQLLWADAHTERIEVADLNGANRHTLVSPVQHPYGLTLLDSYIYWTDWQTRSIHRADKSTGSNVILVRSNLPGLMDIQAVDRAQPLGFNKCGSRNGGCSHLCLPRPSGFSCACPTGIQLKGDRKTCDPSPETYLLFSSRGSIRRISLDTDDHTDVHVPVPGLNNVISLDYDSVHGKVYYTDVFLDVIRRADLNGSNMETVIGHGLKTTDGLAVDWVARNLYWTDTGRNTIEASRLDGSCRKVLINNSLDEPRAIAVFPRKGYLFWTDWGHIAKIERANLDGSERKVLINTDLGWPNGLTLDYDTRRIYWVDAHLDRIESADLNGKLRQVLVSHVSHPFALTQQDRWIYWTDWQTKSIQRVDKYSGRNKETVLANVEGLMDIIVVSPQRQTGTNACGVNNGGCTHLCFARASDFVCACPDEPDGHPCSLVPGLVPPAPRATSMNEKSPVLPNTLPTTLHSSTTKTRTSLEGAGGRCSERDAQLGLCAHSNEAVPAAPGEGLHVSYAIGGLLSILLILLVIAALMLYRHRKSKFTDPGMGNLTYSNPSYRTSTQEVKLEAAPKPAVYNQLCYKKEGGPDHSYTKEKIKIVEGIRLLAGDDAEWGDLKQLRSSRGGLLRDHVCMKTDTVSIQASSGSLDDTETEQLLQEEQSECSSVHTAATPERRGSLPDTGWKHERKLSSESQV
Lrp4 (full length, overexpressed in HEK293A cells): residues 21-1905 of Q8VI56
Lrp4 ectodomain fused to the constant region of Immunoglobulin G (Lrp4ecto-Fc): residues 21-1725 of Q8VI56

No constants are given. Whether binding was seen depends on the method and setting. In cells and extracts the contact can be indirect. Some results given as binding are weak or reduced against the parent protein; the word gives no strength. Where a sequence is shown, tags or fusion partners need not be part of it.

Experiment [1] concerns the target Lrp4 ectodomain fused to the constant region of Immunoglobulin G (Lrp4ecto-Fc) (UniProt Q8VI56). Description: pull-down; cell free: LRP4ecto-Fc from conditioned medium bound to Protein A-Agarose beads, incubated with pre-cleared media of AP-tagged proteins at 4°C overnight, washed four times with PBS, blot with anti-AP antibody.
The target in experiment [2] is Lrp4 (full length, overexpressed in HEK293A cells) (UniProt Q8VI56). Description: co-IP; HEK293A cells transfected with full length LRP4 incubated with conditioned media of AP-tagged proteins at 37°C for 1 h, cross-linked with dithiobis[succinimidylpropionate] (250 µM), lysed in 1% Triton X-100 buffer; immunoprecipitation with anti-AP antibody and Protein A-Agarose, blot with anti-Lrp4 antibodies.

B1: Dickkopf1 (Dkk1) alkaline phosphatase fusion protein (ligand, UniProt O54908 32-272)
chain: TLNSVLINSNAIKNLPPPLGGAGGQPGSAVSVAPGVLYEGGNKYQTLDNYQPYPCAEDEECGSDEYCSSPSRGAAGVGGVQICLACRKRRKRCMRHAMCCPGNYCKNGICMPSDHSHFPRGEIEESIIENLGNDHNAAAGDGYPRRTTLTSKIYHTKGQEGSVCLRSSDCAAGLCCARHFWSKICKPVLKEGQVCTKHKRKGSHGLEIFQRCYCGEGLACRIQKDHHQASNSSRLHTCQRH
For the molecule B1, the binding result in experiment [1] and in experiment [2] was “binds” each time.
